Results taken from the supplement of paper PMC10849652.
The list shows a part of the results.

Protein sequences, listed by entry. Tags and fused reporters are not part of them. Lines headed by an entry give the natural chain unless they say otherwise; changes in a name come on top.
UniProt Q8IWJ2: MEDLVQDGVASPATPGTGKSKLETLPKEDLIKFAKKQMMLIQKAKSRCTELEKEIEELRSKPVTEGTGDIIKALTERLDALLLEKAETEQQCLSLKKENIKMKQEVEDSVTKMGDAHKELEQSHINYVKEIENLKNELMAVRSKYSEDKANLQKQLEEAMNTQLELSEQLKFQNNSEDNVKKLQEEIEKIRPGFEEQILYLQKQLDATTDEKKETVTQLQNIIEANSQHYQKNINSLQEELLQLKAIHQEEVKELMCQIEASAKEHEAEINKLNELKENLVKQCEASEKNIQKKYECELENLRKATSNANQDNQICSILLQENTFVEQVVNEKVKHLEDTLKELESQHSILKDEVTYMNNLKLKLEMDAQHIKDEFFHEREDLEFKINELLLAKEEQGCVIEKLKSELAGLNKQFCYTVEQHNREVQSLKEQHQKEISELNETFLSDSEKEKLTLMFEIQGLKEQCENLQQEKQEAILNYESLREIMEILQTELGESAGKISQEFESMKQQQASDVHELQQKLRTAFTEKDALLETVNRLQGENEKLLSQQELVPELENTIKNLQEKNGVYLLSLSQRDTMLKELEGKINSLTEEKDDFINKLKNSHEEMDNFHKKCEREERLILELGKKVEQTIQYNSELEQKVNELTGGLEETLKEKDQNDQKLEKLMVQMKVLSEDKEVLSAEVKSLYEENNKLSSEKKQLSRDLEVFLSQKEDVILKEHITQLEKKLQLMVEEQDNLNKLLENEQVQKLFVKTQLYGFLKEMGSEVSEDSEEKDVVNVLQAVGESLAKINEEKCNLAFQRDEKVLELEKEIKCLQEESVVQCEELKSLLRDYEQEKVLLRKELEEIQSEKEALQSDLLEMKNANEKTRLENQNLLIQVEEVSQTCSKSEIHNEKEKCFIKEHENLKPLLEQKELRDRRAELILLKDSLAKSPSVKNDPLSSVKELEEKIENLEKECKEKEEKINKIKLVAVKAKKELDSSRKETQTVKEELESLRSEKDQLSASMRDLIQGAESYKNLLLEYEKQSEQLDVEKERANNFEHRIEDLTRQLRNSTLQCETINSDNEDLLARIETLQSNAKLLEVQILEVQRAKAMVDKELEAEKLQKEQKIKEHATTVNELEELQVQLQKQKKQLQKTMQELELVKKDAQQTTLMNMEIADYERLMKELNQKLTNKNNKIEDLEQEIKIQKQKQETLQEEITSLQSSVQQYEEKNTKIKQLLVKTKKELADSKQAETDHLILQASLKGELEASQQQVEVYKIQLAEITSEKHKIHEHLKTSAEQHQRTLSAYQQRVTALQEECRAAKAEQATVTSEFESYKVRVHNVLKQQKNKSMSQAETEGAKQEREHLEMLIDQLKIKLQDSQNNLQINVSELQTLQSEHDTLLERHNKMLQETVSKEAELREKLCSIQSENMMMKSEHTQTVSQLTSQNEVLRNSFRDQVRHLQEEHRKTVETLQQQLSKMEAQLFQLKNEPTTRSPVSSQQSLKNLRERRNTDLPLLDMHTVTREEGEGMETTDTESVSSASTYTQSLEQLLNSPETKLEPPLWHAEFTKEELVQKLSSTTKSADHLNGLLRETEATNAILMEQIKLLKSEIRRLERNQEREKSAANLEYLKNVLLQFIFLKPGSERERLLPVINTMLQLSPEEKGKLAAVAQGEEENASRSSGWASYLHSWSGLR
UniProt Q9H3C7, whole entry, looked up: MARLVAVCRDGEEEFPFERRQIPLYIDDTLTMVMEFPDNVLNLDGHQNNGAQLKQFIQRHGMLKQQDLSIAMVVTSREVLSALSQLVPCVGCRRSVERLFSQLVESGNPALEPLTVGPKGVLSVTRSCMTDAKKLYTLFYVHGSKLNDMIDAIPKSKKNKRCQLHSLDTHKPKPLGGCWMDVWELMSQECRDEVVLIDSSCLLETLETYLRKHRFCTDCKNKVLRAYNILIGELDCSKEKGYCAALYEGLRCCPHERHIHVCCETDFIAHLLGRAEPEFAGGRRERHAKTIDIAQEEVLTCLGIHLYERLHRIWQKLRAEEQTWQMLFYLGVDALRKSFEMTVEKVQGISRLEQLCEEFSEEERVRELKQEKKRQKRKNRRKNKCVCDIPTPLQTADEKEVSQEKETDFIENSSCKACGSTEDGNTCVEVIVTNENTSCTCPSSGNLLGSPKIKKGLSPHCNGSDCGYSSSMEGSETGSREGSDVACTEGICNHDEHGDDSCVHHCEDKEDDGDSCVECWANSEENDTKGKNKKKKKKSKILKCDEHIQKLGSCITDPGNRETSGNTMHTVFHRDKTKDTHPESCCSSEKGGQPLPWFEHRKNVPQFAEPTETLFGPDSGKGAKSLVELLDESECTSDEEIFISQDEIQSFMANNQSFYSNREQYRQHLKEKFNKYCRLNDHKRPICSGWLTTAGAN
UniProt Q06210: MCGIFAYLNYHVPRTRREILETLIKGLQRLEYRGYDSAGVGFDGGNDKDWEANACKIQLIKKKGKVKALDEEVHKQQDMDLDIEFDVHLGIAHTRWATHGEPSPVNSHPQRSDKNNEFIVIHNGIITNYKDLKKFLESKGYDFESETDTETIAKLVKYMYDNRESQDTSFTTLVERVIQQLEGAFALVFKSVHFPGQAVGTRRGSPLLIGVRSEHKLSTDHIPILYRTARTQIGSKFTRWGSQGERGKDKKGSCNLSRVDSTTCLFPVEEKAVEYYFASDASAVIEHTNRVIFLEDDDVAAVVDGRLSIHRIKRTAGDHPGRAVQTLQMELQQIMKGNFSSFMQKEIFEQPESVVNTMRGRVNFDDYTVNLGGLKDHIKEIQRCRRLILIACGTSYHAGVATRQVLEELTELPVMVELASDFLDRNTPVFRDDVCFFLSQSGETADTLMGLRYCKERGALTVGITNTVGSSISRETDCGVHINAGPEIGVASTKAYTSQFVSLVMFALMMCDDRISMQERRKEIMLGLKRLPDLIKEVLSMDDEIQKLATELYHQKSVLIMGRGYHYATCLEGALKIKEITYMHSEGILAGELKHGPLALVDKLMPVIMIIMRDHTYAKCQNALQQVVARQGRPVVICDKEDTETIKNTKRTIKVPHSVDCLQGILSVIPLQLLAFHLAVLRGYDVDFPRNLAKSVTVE
UniProt Q9UPW0: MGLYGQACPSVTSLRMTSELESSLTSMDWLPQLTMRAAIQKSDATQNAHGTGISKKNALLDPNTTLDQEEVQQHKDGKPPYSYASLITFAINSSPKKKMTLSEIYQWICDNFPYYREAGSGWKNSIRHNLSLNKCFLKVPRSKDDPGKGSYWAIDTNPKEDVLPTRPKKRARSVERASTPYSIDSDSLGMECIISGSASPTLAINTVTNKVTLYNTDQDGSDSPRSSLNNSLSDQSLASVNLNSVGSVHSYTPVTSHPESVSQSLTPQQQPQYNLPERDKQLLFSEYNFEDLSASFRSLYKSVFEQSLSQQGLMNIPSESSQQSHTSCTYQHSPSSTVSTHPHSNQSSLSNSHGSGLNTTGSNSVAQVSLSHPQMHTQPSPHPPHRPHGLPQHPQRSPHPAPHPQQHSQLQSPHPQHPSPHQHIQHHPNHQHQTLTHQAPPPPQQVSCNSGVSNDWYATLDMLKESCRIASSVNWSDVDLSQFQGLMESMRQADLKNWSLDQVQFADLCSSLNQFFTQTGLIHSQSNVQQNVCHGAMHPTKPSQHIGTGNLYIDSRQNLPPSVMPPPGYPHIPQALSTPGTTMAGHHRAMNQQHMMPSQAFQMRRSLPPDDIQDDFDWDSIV
UniProt Q96CU9: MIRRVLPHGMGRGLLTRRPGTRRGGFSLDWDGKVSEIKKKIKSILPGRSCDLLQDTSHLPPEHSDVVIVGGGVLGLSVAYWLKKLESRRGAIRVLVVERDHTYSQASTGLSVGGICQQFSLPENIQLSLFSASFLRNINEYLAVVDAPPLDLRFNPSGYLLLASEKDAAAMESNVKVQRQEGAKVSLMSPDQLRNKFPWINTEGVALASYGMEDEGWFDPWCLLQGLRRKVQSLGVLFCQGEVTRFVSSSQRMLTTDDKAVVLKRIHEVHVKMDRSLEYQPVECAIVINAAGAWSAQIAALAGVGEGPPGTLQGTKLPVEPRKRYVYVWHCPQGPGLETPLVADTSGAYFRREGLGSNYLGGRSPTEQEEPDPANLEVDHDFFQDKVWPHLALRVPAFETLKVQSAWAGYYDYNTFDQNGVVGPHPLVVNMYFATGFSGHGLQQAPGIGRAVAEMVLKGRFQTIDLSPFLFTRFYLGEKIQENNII
UniProt P30047: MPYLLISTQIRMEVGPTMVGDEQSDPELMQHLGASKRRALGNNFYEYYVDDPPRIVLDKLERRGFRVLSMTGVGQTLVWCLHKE
UniProt Q10471: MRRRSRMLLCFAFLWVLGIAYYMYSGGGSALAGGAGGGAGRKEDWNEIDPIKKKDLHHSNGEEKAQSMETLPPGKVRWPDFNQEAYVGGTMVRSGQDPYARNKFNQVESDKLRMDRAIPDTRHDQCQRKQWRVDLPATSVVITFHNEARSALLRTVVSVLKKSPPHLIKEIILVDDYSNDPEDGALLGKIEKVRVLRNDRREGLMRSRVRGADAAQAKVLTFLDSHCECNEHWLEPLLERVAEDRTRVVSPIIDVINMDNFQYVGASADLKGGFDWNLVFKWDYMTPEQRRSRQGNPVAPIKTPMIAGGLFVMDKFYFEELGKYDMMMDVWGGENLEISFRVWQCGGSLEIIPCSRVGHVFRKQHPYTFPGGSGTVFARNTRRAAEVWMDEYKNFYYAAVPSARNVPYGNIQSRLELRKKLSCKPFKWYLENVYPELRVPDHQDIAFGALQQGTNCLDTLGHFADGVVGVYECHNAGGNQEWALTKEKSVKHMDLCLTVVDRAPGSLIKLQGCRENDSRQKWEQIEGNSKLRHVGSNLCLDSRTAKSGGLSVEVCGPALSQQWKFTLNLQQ
UniProt Q92947: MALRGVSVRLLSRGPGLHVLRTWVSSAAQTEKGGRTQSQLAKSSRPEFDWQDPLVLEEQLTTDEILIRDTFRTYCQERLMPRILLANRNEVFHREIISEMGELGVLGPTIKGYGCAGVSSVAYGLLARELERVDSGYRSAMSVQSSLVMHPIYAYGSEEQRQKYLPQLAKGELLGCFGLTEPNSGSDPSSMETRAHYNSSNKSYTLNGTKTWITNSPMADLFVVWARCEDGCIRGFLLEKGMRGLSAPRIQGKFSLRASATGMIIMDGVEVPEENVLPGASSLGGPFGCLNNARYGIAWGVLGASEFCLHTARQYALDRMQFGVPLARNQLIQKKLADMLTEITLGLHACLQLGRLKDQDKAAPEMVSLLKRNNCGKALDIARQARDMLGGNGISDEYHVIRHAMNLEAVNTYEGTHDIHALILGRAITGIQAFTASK
UniProt Q86YP4: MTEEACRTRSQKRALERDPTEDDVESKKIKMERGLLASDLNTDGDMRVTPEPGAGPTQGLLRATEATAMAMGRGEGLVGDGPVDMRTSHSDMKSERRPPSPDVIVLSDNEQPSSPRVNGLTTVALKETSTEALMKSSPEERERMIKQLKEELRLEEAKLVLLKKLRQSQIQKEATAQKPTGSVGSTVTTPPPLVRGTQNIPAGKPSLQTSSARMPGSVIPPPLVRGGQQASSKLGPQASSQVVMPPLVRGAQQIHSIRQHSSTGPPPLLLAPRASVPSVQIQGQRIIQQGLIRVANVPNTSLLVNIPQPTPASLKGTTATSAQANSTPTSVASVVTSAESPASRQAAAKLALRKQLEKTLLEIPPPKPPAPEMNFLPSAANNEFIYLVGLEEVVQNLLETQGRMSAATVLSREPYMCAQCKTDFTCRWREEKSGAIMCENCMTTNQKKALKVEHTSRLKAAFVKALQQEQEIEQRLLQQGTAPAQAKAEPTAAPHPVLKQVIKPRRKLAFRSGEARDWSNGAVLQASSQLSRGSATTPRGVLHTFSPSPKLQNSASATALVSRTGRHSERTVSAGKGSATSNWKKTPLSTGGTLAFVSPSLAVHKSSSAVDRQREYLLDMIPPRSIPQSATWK
UniProt P15976: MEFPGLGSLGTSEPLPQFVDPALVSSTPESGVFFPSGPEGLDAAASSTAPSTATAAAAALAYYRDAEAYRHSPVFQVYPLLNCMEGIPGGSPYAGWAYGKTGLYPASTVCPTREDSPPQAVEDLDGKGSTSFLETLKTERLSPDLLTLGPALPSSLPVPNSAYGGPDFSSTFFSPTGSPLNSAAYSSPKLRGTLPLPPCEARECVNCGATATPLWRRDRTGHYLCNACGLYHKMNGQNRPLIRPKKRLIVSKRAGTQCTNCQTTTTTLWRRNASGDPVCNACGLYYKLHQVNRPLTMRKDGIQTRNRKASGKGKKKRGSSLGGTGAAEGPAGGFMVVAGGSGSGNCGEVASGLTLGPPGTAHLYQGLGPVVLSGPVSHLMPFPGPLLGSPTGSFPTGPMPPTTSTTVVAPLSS

Columns and labels:
Test in all cases: log2 fold change, soluble protein after heating vs DMSO (PISA); higher = thermal stabilisation; K562 cells, 10 uM, 30 min; active = over 0.2 and 3.5 SD of the protein, either way, in both replicates (recomputed)
[1] = compound: C1=CC=C(C=C1)[C@H](COC2=CC3=C(C=C2)NC(=O)N3)NC(=O)C4=CC=CN(C4=O)CC5=CC(=C(C=C5)F)F
Summary of the method: (§1)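 Soluble protein was defined as the supernatant after 21,000xg for 90 min. It came from K562 cells at 2×10^6 cells/mL given 10 μM compound for 30 min, heated in aliquots for 3 min across 48°C-58°C, pooled, and extracted in PBS with 0.5% NP-40 at 4°C, and was quantified by TMTpro 16plex LC-MS/MS with equalised channel sums. Thermal stability against control samples, from duplicates, is reported as log2 fold change.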

[2] = compound: CC1=C(SC2=C1C(=N[C@H](C3=NN=C(N32)C)CC(=O)N)C4=CC=C(C=C4)Cl)C
Summary of the method: as §1

[3] = compound: CC1=C2C(=CC=C1)N=C(N(C2=O)C3=CC=CC=C3C)CN4C=NC5=C(N=CN=C54)N
Summary of the method: as §1

[4] = compound: Cc1sc2c(c1C)C(c1ccc(Cl)cc1)=N[C@@H](CC(=O)OC(C)(C)C)c1nnc(C)n1-2
Summary of the method: as §1

[5] = compound: c1ccc([C@@H]2C[C@H]2NC2CCNCC2)cc1
Summary of the method: as §1

Measured: log2 fold change

GDF15 (UniProt Q99988)
inactive: [1] 0.004 | [2] -0.062 | [3] 0.025 | [4] -0.022 | [5] 0.042

GCC2 (UniProt Q8IWJ2)
inactive: [1] -0.027 | [2] -0.116 | [3] 0.004 | [4] 0.066 | [5] -0.059

GGNBP2 (UniProt Q9H3C7)
inactive: [1] 0.082 | [2] 0 | [3] -0.08 | [4] 0.053 | [5] -0.218

GGA2 (UniProt Q9UJY4)
inactive: [1] -0.023 | [2] 0.014 | [3] -0.035 | [4] 0.041 | [5] -0.047

GCSH (UniProt P23434)
inactive: [1] 0.029 | [2] -0.004 | [3] -0.043 | [4] 0 | [5] 0.043

GALK2 (UniProt Q01415)
inactive: [1] -0.007 | [2] 0.041 | [3] 0.04 | [4] -0.031 | [5] -0.013

GFPT1 (UniProt Q06210)
inactive: [1] 0.02 | [2] 0.032 | [3] 0.003 | [4] 0.004 | [5] -0.018

G3BP2 (UniProt Q9UN86)
inactive: [1] 0.058 | [2] -0.262 | [3] -0.256 | [4] 0.257 | [5] 0.042

GC isoform 3 (UniProt P02774)
inactive: [1] -0.112 | [2] 0.101 | [3] -0.149 | [4] 0.022 | [5] 0.073

FUCA2 (UniProt Q9BTY2)
inactive: [1] 0.055 | [2] -0.004 | [3] 0.005 | [4] 0.034 | [5] 0.006

FOXJ3 (UniProt Q9UPW0)
inactive: [1] -0.007 | [2] 0.069 | [3] -0.115 | [4] -0.032 | [5] 0.08

FOXRED1 (UniProt Q96CU9)
inactive: [1] -0.046 | [2] 0.062 | [3] 0.084 | [4] -0.013 | [5] -0.042

GABARAPL1 isoform 2 (UniProt Q9H0R8)
inactive: [1] 0.02 | [2] 0.094 | [3] 0.073 | [4] -0.022 | [5] -0.036

GALNT11 (UniProt Q8NCW6)
inactive: [1] -0.027 | [2] 0.096 | [3] 0.093 | [4] -0.097 | [5] -0.027

GAGE2A (UniProt Q6NT46)
inactive: [1] -0.012 | [2] 0.052 | [3] 0.045 | [4] -0.031 | [5] -0.002

GHDC (UniProt Q8N2G8)
inactive: [1] 0.061 | [2] 0.016 | [3] 0.022 | [4] 0.031 | [5] -0.019

FXR2 (UniProt P51116)
inactive: [1] 0.148 | [2] -0.168 | [3] -0.151 | [4] 0.231 | [5] 0.109

GGA3 (UniProt Q9NZ52)
inactive: [1] -0.072 | [2] 0.103 | [3] 0.025 | [4] -0.027 | [5] 0.014

FUBP1 isoform 2 (UniProt Q96AE4)
inactive: [1] 0.013 | [2] -0.023 | [3] 0.001 | [4] -0.001 | [5] 0.015

GCHFR (UniProt P30047)
inactive: [1] -0.033 | [2] 0.051 | [3] 0.146 | [4] -0.107 | [5] -0.007

FRA10AC1 isoform 3 (UniProt Q70Z53)
inactive: [1] -0.03 | [2] 0.005 | [3] 0.055 | [4] 0.069 | [5] 0.073

FURIN (UniProt P09958)
inactive: [1] 0.004 | [2] 0.123 | [3] -0.037 | [4] -0.036 | [5] -0.001

FNTA (UniProt P49354)
inactive: [1] -0.009 | [2] -0.024 | [3] 0.02 | [4] 0.04 | [5] -0.009

GFER (UniProt P55789)
inactive: [1] -0.062 | [2] 0.04 | [3] -0.005 | [4] -0.031 | [5] 0.025

GALE (UniProt Q14376)
inactive: [1] 0.024 | [2] 0.035 | [3] 0.038 | [4] -0.03 | [5] -0.02

GGPS1 (UniProt O95749)
inactive: [1] -0.01 | [2] -0.024 | [3] 0.024 | [4] 0.019 | [5] 0.028

FRG1 (UniProt Q14331)
inactive: [1] -0.007 | [2] -0.09 | [3] -0.074 | [4] 0.136 | [5] 0.018

FYCO1 isoform 4 (UniProt Q9BQS8)
inactive: [1] 0 | [2] -0.021 | [3] 0.017 | [4] -0.012 | [5] 0.045

GEMIN6 (UniProt Q8WXD5)
inactive: [1] 0.027 | [2] -0.111 | [3] -0.053 | [4] -0.113 | [5] -0.063

GALNT2 (UniProt Q10471)
inactive: [1] 0.008 | [2] 0.057 | [3] 0.001 | [4] 0.007 | [5] -0.004

GCDH (UniProt Q92947)
inactive: [1] 0.021 | [2] 0.012 | [3] 0.036 | [4] -0.043 | [5] -0.019

GABPB1 isoform 3 (UniProt Q06547)
inactive: [1] -0.001 | [2] -0.031 | [3] 0.263 | [4] -0.236 | [5] -0.134

GABARAPL2 (UniProt P60520)
inactive: [1] 0.037 | [2] 0.035 | [3] 0.039 | [4] -0.038 | [5] -0.055

GGA1 isoform 6 (UniProt Q9UJY5)
inactive: [1] -0.004 | [2] 0.01 | [3] 0.046 | [4] 0.015 | [5] -0.068

FUT11 (UniProt Q495W5)
inactive: [1] -0.028 | [2] -0.041 | [3] 0.009 | [4] -0.036 | [5] -0.084

GATAD2A isoform 3 (UniProt Q86YP4)
inactive: [1] -0.043 | [2] -0.006 | [3] 0.059 | [4] 0.056 | [5] -0.003

FTSJ1 (UniProt Q9UET6)
inactive: [1] -0.033 | [2] 0.06 | [3] 0.024 | [4] -0.016 | [5] -0.035

FUT8 (UniProt Q9BYC5)
inactive: [1] 0 | [2] 0.068 | [3] -0.06 | [4] -0.168 | [5] 0.049

GDAP1 (UniProt Q8TB36)
inactive: [1] -0.049 | [2] 0.033 | [3] 0.046 | [4] -0.014 | [5] -0.074

GHITM (UniProt Q9H3K2)
inactive: [1] 0.021 | [2] 0.017 | [3] -0.013 | [4] -0.024 | [5] 0.016

GATA1 (UniProt P15976)
inactive: [1] 0.061 | [2] -0.014 | [3] 0.064 | [4] 0.117 | [5] 0.029

FPGT (UniProt O14772)
inactive: [1] -0.027 | [2] 0.042 | [3] -0.047 | [4] -0.058 | [5] 0.004

GAR1 (UniProt Q9NY12)
inactive: [1] 0.047 | [2] -0.139 | [3] -0.137 | [4] 0.147 | [5] 0

FUCA1 (UniProt P04066)
inactive: [1] -0.001 | [2] 0.058 | [3] 0.03 | [4] 0.018 | [5] 0.053

FNTB (UniProt P49356)
inactive: [1] -0.034 | [2] 0.401 | [3] -0.017 | [4] 0.269 | [5] -0.044

GGH (UniProt Q92820)
inactive: [1] 0.028 | [2] -0.029 | [3] -0.056 | [4] -0.029 | [5] 0.054

GBE1 (UniProt Q04446)
inactive: [1] -0.116 | [2] 0.01 | [3] -0.009 | [4] 0.03 | [5] 0.008

GAB1 isoform 2 (UniProt Q13480)
inactive: [1] -0.019 | [2] -0.024 | [3] -0.065 | [4] 0.09 | [5] 0.007

GAPVD1 isoform 6 (UniProt Q14C86)
inactive: [1] -0.09 | [2] 0.008 | [3] 0.097 | [4] 0.012 | [5] -0.018

FRY (UniProt Q5TBA9)
inactive: [1] 0.303 | [3] -0.006 | [4] -0.044

FOXO3 (UniProt O43524)
inactive: [2] 0.065 | [3] 0.012 | [4] 0.125 | [5] -0.039

GATA2 (UniProt P23769)
inactive: [1] 0.051 | [2] 0.06 | [3] -0.139 | [5] -0.101

GFM1 (UniProt Q96RP9)
inactive: [1] -0.068 | [2] 0.099 | [3] 0.122 | [4] -0.011 | [5] -0.03

Random excerpt: 4 entries already listed
GBE1 (UniProt Q04446)
inactive: [1] -0.116 | [2] 0.01 | [3] -0.009 | [4] 0.03 | [5] 0.008

GAB1 isoform 2 (UniProt Q13480)
inactive: [1] -0.019 | [2] -0.024 | [3] -0.065 | [4] 0.09 | [5] 0.007

FRY (UniProt Q5TBA9)
inactive: [1] 0.303 | [3] -0.006 | [4] -0.044

GATA2 (UniProt P23769)
inactive: [1] 0.051 | [2] 0.06 | [3] -0.139 | [5] -0.101

Further entries:

GALNT6 (UniProt Q8NCL4)
inactive: [1] 0.035 | [4] 0.021

FYTTD1 (UniProt Q96QD9)
inactive: [2] -0.226 | [4] 0.232 | [5] 0.189
